Results: the supplement of paper PMC12067093, “Discovery and optimisation of a covalent ligand for TRIM25 and its application to targeted protein ubiquitination” (Chemical Science, 2025)
The list shows a part of the results.

compound: Cc1cc(ccc1-c1ccccc1)C(=O)N1CCCN(CC1)C(=O)CCl [compound 10]; experiment: probe-labelled cysteine peptide fold change vs DMSO (competition) (log2 fold change); higher = less target engagement (more negative = stronger competition); conditions: 10 µM; THP-1; incubation time: 4 h
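Also: competitive profiling in live THP-1 cells: cysteine peptides tagged with an iodoacetamide desthiobiotin (IA-DTB) probe, intensity after compound treatment relative to DMSO-treated cells.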

Target	probe-labelled cysteine peptide fold change
BAZ1B_Q9UIG0_994_QGQNLWFLCDSQK (UniProt Q9UIG0)	0.0364
BCAS2_O75934_132_IENLELMSQHGCNAWK (UniProt O75934)	0.126
ATXN2_Q99700_892_RGPEVTSQGVQTSSPACK (UniProt Q99700)	-0.0651
BPNT1_O95861_59_LAQMSICSSLAR (UniProt O95861)	-0.159
BABAM2_Q9NXR7_34_VGLDATNCLR (UniProt Q9NXR7)	-0.0698
BABAM2_Q9NXR7_129_ELVQQYHQFQCSR (UniProt Q9NXR7)	0.422
BAZ1A_Q9NRL2_404_EDMECDDLK (UniProt Q9NRL2)	-0.334
BICRA_Q9NZM4_1382_KPLGTAPHCPR (UniProt Q9NZM4)	-0.0185
ATXN10_Q9UBB4_65_SSHAVELACR (UniProt Q9UBB4)	0.0331
BCR_P11274_886_SFSLTSVELQMLTNSCVK (UniProt P11274)	-0.0235
B4GALT7_Q9UBV7_75_ACPPEPPPEHWEEDASWGPHR (UniProt Q9UBV7)	-0.0506
AVL9_Q8NBF6_119_SVCVLSK (UniProt Q8NBF6)	-0.214
BAHD1_Q8TBE0_764_TVPEDTDPELVFLCR (UniProt Q8TBE0)	-0.118
BPTF_Q12830_2697_MIVCNQVMK (UniProt Q12830)	0.0771
BCR_P11274_737_HVFLFTDLLLCTK (UniProt P11274)	0.156
BAG5_Q9UL15_157+166_ICAVQEIIEDCMK (UniProt Q9UL15)	0.189
BIRC6_Q9NR09_874_IQHIKDPQDTITSLILLPPDILDNREDDCEEPIEDMQLTSK (UniProt Q9NR09)	-0.303

Looked up above.
probe-labelled cysteine peptide fold change, BIRC6_Q9NR09_874_IQHIKDPQDTITSLILLPPDILDNREDDCEEPIEDMQLTSK (UniProt Q9NR09) reads -0.303
probe-labelled cysteine peptide fold change, BAG5_Q9UL15_157+166_ICAVQEIIEDCMK (UniProt Q9UL15) reads 0.189
